Source: paper PMC10204968

The chains behind the UniProt entries cited, without tags or fusion partners. Where a name states a change or a piece, a line headed by the entry shows the natural chain unless it says otherwise.
UniProt B0UTF5: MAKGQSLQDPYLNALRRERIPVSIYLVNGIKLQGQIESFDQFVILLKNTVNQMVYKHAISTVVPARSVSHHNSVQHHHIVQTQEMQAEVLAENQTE

Molecular target: Hfq (His6-Hfq) (Histophilus somni strain 2336) (UniProt B0UTF5)
Test: EMSA
Conditions: 0.65-5 uM Hfq, yeast tRNA competitor; 10 mM Tris-HCl pH 7.4, 6% glycerol, 50 ug/ml BSA, 0.75 ug baker's yeast tRNA, 200 ng sRNA, 15 ul, room temperature 30 min; 6% native PAGE, 0.5x TBE, GelGreen stain; recombinant protein; residues 1-96; protein details: His6 and V5 epitope (pET101/D-TOPO); probe letters rebuilt from the primers and the genome

“GGGGUGUAUAAUAGAAAUCAAAUAAUCGUGUUUAACGGUUUGGUCUGGAAACUUCAACGUUAAAACACUUGUAACGGAUAAGCCCUAUAGCCAAAUAGGGCUUUUUCUUUAUCUGUACCUUUUAGCUUAGGGAUAGUUACCGACAGGCGAAACCGCCGUUUACGGCGGUUGAGUUUUUAGAGCUGAAGCAAGGCAGAAAUGCCGUAGCCUGAAGCCUAAAAAUAUAGCCCGACCGCACGCUUUUGCGUGGGGUAAGCCCCUAAACCAUAUAAACUGGUUGCUAUUGUACCGCCUGACUUAUACAAAGAUCAAGUAAGAUCUAAAAUCCACGCAAAAAAAAUUUUUU [HS79 sRNA]”: binds.
